Reference: publication PMC12882719
No constants are given. Whether binding was seen depends on the method and setting. Binding seen in cells or lysates may run through a third protein. Some results given as binding are weak or reduced against the parent protein; the word gives no strength.

Chains of the proteins cited; added tags and fusions are not shown. Lines headed by an entry give the natural chain unless they say otherwise; changes in a name come on top. A line that says so, or that is headed by a name, gives the form on record, which may keep a tag or linker. Residues count along the entry.
GluN2B wild-type subunit of the NMDA receptor (Q13224, residues 27-1484): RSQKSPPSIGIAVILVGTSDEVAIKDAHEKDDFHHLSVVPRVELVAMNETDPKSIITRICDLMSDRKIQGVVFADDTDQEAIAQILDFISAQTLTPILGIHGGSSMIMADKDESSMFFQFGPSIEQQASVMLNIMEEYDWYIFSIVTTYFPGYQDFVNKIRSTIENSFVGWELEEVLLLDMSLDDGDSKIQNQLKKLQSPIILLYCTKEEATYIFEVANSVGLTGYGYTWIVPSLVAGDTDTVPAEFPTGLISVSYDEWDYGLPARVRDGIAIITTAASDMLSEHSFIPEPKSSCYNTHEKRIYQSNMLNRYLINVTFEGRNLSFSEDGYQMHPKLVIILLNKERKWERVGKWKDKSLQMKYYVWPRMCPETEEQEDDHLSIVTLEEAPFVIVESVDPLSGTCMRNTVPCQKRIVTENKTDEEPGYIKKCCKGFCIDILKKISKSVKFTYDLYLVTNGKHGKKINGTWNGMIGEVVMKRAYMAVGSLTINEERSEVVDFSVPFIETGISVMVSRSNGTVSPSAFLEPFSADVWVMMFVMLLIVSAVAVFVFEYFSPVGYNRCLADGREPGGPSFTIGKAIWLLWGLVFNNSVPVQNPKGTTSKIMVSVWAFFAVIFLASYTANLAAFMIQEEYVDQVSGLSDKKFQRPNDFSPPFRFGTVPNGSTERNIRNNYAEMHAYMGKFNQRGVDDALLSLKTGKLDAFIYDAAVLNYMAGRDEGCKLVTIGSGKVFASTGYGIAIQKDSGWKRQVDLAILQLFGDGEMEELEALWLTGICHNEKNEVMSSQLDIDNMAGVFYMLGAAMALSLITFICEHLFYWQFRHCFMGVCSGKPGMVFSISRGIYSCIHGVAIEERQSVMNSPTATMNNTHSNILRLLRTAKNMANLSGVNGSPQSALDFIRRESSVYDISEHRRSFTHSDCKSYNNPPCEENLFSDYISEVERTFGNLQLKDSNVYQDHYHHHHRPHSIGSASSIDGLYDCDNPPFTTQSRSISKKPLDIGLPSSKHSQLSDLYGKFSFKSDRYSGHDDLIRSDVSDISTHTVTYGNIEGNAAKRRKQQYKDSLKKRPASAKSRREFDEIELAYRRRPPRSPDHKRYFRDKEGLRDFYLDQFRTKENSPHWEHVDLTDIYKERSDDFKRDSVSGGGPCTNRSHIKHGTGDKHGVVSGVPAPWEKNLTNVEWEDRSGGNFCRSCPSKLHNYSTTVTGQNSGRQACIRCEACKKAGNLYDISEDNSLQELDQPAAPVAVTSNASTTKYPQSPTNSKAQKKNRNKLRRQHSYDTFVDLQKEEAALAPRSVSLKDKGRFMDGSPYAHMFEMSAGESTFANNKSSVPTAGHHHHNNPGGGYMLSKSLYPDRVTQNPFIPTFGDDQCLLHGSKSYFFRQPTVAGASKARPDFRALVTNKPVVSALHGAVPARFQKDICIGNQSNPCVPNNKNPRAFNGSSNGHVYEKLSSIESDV
GluN2B R519Q disease-associated variant subunit of the NMDA receptor (Q13224, form named): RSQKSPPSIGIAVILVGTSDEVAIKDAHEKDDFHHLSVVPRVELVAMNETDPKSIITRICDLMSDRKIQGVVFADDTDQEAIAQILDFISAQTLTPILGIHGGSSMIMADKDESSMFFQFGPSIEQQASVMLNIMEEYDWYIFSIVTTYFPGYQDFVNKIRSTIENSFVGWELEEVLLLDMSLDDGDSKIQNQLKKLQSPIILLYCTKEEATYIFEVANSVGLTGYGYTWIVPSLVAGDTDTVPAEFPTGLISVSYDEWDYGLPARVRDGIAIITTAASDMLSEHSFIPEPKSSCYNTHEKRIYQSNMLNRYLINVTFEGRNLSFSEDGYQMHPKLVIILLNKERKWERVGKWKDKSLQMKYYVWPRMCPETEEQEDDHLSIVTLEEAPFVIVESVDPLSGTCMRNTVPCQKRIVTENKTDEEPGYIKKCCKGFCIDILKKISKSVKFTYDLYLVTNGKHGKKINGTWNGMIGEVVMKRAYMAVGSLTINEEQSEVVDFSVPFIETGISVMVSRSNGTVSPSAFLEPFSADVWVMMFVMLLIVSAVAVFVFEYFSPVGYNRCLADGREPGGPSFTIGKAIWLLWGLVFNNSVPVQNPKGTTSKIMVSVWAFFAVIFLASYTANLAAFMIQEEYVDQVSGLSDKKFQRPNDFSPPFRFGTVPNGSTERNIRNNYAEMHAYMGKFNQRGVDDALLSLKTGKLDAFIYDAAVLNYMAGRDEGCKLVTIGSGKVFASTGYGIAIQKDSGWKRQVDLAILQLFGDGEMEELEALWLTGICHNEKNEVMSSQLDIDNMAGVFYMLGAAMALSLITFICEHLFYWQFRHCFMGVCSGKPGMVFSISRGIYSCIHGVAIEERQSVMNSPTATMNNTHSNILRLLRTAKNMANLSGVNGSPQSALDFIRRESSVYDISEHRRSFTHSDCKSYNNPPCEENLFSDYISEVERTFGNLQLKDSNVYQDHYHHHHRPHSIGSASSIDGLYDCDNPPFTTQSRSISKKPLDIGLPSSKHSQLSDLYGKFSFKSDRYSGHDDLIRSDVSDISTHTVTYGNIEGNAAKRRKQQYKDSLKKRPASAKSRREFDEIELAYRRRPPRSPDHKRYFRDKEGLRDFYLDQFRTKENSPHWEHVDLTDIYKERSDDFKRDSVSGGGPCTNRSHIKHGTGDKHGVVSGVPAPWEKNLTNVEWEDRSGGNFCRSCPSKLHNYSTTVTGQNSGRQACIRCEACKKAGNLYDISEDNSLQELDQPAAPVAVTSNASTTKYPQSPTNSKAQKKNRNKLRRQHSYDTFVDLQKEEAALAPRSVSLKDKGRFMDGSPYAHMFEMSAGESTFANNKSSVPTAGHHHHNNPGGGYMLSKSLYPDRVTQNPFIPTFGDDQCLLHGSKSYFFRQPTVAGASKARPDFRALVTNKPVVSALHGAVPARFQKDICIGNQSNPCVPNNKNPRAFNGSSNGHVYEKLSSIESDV
GluN2B R519Q_F1307A (R519Q variant with disrupted LIR motif) (Q13224, form named): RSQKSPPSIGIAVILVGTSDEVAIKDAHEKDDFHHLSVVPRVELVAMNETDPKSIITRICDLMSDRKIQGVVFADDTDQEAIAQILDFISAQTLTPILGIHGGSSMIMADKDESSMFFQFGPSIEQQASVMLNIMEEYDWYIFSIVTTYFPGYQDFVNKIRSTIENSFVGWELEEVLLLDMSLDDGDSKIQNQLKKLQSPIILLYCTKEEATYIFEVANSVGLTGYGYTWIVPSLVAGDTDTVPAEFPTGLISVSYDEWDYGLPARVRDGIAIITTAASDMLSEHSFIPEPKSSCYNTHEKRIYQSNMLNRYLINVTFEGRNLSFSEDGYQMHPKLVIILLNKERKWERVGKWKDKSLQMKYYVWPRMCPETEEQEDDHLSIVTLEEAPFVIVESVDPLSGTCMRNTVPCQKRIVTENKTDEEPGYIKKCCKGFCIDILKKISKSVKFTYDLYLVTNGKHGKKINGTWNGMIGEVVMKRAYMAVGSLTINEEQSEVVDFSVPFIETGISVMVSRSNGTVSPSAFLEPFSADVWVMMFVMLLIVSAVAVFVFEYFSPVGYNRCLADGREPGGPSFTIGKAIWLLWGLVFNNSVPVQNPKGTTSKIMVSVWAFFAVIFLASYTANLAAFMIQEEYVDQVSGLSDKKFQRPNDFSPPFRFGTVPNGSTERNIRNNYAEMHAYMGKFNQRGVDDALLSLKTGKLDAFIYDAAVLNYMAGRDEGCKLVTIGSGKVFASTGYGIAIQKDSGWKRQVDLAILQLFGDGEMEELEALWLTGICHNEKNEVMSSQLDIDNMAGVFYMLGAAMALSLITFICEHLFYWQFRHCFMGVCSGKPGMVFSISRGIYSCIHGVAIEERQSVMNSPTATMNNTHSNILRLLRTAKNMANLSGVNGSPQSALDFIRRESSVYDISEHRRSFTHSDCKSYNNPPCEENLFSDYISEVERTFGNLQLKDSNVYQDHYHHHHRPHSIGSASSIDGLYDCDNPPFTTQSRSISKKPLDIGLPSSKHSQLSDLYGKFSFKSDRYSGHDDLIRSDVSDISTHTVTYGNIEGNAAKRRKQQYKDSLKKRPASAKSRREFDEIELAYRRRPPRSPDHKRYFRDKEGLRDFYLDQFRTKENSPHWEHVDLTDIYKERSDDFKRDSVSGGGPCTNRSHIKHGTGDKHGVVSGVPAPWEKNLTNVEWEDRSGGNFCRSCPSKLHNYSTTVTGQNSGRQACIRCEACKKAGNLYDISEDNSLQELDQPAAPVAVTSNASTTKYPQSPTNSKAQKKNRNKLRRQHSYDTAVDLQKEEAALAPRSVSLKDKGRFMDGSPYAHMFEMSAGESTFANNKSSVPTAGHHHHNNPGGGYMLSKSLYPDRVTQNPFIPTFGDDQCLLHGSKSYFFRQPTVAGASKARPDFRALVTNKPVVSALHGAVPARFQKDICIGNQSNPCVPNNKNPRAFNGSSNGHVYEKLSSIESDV
UniProt Q14457: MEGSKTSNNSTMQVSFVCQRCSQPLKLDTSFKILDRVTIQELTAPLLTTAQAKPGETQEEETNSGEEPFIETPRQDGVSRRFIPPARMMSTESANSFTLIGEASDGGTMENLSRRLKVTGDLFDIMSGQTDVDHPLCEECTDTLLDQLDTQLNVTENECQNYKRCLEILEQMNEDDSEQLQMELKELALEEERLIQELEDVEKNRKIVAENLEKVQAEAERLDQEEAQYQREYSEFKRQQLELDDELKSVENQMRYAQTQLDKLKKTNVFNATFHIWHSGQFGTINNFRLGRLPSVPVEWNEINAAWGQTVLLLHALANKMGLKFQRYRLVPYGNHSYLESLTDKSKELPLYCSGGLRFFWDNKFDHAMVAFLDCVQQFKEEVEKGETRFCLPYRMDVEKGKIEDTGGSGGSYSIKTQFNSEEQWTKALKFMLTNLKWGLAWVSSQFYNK
UniProt O95197: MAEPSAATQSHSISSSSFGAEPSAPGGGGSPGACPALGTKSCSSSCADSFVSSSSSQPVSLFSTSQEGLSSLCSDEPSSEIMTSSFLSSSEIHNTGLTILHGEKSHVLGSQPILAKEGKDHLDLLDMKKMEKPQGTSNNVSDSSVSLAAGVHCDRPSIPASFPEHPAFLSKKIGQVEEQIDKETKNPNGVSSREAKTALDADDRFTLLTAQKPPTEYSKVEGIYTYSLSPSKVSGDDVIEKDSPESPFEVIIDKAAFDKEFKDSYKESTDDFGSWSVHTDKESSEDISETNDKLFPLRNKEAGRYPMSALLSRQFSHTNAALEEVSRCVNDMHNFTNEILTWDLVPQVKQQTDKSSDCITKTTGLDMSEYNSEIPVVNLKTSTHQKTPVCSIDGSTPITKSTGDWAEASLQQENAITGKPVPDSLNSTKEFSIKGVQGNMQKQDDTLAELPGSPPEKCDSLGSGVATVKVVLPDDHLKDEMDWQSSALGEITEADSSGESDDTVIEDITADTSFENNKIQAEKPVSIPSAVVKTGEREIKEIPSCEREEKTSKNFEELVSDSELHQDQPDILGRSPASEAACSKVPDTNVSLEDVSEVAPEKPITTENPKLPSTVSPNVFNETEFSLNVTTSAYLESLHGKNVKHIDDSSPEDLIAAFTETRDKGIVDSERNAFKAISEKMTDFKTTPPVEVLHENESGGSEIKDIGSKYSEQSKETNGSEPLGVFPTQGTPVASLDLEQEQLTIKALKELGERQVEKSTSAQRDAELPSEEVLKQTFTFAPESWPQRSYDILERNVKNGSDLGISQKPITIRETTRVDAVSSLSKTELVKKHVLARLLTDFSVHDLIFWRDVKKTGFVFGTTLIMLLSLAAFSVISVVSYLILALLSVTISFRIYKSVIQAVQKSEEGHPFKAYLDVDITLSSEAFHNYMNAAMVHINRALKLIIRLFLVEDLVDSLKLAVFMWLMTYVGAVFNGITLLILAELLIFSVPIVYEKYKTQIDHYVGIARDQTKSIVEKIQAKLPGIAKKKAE

How the values were obtained:
Assay in all cases: co-IP; lysates (1000 ug) of HEK293T cells transfected with GluN1 and GluN2B (WT, R519Q or R519Q_F1307A), cells treated with 20 nM Baf-A1 for 24 h; precipitated with mouse anti-GluN2B antibody (NeuroMab #75-097) and Protein A/G plus-agarose at 4 C, washed with TBS, 1% Triton X-100; partners detected by Western blot; IgG as negative control
[1] = target: GluN2B R519Q disease-associated variant subunit of the NMDA receptor (human) (UniProt Q13224)
[2] = target: GluN2B wild-type subunit of the NMDA receptor (human) (UniProt Q13224)
[3] = target: GluN2B R519Q_F1307A (R519Q variant with disrupted LIR motif) (human) (UniProt Q13224)

| binding [1] | binding [2] | binding [3] | Molecule |
| --- | --- | --- | --- |
| binds |  |  | Beclin 1 (from UniProt Q14457 1-450) |
| binds | binds |  | ER-phagy receptor RTN3L (from UniProt O95197 1-1032) |
| binds |  | binds | ER-phagy receptor CCPG1 (protein, UniProt Q9ULG6-1 1-757) MSENSSDSDSSCGWTVISHEGSDIEMLNSVTPTDSCEPAPECSSLEQEELQALQIEQGESSQNGTVLMEETAYPALEETSSTIEAEEQKIPEDSIYIGTASDDSDIVTLEPPKLEEIGNQEVVIVEEAQSSEDFNMGSSSSSQYTFCQPETVFSSQPSDDESSSDETSNQPSPAFRRRRARKKTVSASESEDRLVAEQETEPSKELSKRQFSSGLNKCVILALVIAISMGFGHFYGTIQIQKRQQLVRKIHEDELNDMKDYLSQCQQEQESFIDYKSLKENLARCWTLTEAEKMSFETQKTNLATENQYLRVSLEKEEKALSSLQEELNKLREQIRILEDKGTSTELVKENQKLKQHLEEEKQKKHSFLSQRETLLTEAKMLKRELERERLVTTALRGELQQLSGSQLHGKSDSPNVYTEKKEIAILRERLTELERKLTFEQQRSDLWERLYVEAKDQNGKQGTDGKKKGGRGSHRAKNKSKETFLGSVKETFDAMKNSTKEFVRHHKEKIKQAKEAVKENLKKFSDSVKSTFRHFKDTTKNIFDEKGNKRFGATKEAAEKPRTVFSDYLHPQYKAPTENHHNRGPTMQNDGRKEKPVHFKEFRKNTNSKKCSPGHDCRENSHSFRKACSGVFDCAQQESMSLFNTVVNPIRMDEFRQIIQRYMLKELDTFCHWNELDQFINKFFLNGVFIHDQKLFTDFVNDVKDYLRNMKEYEVDNDGVFEKLDEYIYRHFFGHTFSPPYGPRSVYIKPCHYSSL |
